These results are taken from patent publication US4033721A, “Analysis of gentian violet residue in tissue” (priority 1976, dated 1977).

Values joined by “and” are separate entries in the source; they are usually repeats but may differ in a detail not shown here. Equal values may be shown once. Further values from the same series stand in other lists.

This data set can be described thus: Spectrophotometric determination of gentian violet residue in livers of chickens fed gentian violet (Examples 2 to 24). Type of data set: in vivo. The note with it: chicken liver, feed 35 ppm for 56 days, 48 hours after final dose; 2880 min. The protocol:
This example involves the spectrophotometrical determination of the gentian violet content (as a residue) of poultry tissue.
An acid alcohol solution was prepared by adding 20 ml of concentrated hydrochloric acid to 2,000 ml of 95 percent ethyl alcohol (denatured).
A gentian violet stock solution was prepared as follows: Using the Ainsworth chainomatic analytical balance, 0.104 gm of crystalline gentian violet (USP) was accurately weighed out and quantitatively transferred to a 1000 ml volumetric flask and q.s. to 1000 ml with distilled water. A magnetic stirring bar was inserted into the flask and the gentian violet solution was mixed on a magnetic mixer for 1 hour. This solution contained 100 ug of gentian violet per ml (100 ppm).
Gentian violet-acid alcohol standard solutions were prepared as follows: Five standard dilutions of gentian violet in acid alcohol were prepared and the absorbence (O.D.) for each dilution was determined. […]
The spectrophotometer was set at 590 mμ and zeroed using an acid alcohol blank. The absorbence of the 5 standard dilutions in the 13 mm cuvette was determined. The O.D. of the 1 ppm dilution in the 13 mm cuvette was recorded for use in calculation of the gentian violet recovery. (If method sensitivity below 0.1 ppm is desired, the O.D. of the 1 ppm standard in the 100 mm cell is recorded and the Beckman D.U. is used to make the determinations.) […]

As for `CN(C)c1ccc(C(=C2C=CC(=[N+](C)C)C=C2)c2ccc(N(C)C)cc2)cc1` [gentian violet, hexamethylpararosaniline chloride], the “p.p.m. of Gentian Violet in liver” value was 0.36 p.p.m. and 0.24 p.p.m.
